The test system of the assay is L1210 leukemia ip in BDF1 mice, survival T/C. Put plainly: NCI In Vivo Anticancer Drug Screen. Data for tumor model L1210 Leukemia (intraperitoneal) in B6D2F1 (BDF1) mice. The conditions noted are these: T/C endpoint: mean survival time, higher T/C = longer survival.
Setting [1] is: dose: 100.0 mg/kg/injection, schedule: Q04DX003 (ip), vehicle: saline.
The mark [2] stands for this setting: dose: 200.0 mg/kg/injection, schedule: Q04DX003 (ip), vehicle: saline.
[3] abbreviates: dose: 400.0 mg/kg/injection, schedule: Q04DX003 (ip), vehicle: saline.
Where [4] appears, read: dose: 200.0 mg/kg/injection, schedule: Q01DX001 (ip), vehicle: saline.
[5] abbreviates: dose: 400.0 mg/kg/injection, schedule: Q01DX001 (ip), vehicle: saline.
[6] abbreviates: dose: 400.0 mg/kg/injection, schedule: Q04DX003 (ip), vehicle: Klucel (hydroxypropylcellulose) (HPC).
Setting [7] is: dose: 300.0 mg/kg/injection, schedule: Q01DX001 (ip), vehicle: saline.
[8] abbreviates: dose: 300.0 mg/kg/injection, schedule: Q01DX001 (ip), vehicle: carboxymethylcellulose (CMC).
[9] abbreviates: dose: 200.0 mg/kg/injection, schedule: Q04DX003 (ip), vehicle: saline with Tween-80.
Setting [10] is: dose: 200.0 mg/kg/injection, schedule: Q01DX009 (ip), vehicle: saline.
Where [11] appears, read: dose: 200.0 mg/kg/injection, schedule: Q01DX009 (ip), vehicle: Klucel (hydroxypropylcellulose) (HPC).

The list shows only some results of the screen, not a fair sample: it is rich in T/C values a quarter to a half above the control, in often repeated tests (any T/C) and in doses without a T/C. Other doses and runs of a compound stand elsewhere. T/C is the treated group as % of the vehicle group. Some entries give survivors of the animals treated and no T/C: the source holds a T/C of zero for them, seemingly a mark for toxic or unscored doses. Some doses without a T/C left all or most animals alive at the check, yet need not have been tolerated: the source hardly ever lists a survival T/C far under the control, and the zero likely stands for such cases as well. Counts of survivors are from the toxicity check (mostly the fifth day) where no day follows; animals may have died later. Schedule codes are those of the source, taken here to give the interval after Q, in days (D) or hours (H), and the number of doses after X. Some entries were tested several times; the values are given in rising order.

In the case of `O=C(CC(C(=O)c1ccccc1)N1CC1)c1ccccc1` (stereo unspecified), the survivor count (dose: 200.0 mg/kg/injection, schedule: Q01DX009 (ip), vehicle: saline sonified) is reported as 1 of 6.

As for `CCCC(=O)OC1=CC(=O)c2ccccc2C1=O`, the survivor count (dose: 300.0 mg/kg/injection, schedule: Q01DX001 (ip), vehicle: other) is 1 of 6.

Consider `c1ccc([P+](Cc2ccco2)(c2ccccc2)c2ccccc2)cc1`, for which, where the note is “dose: 80.0 mg/kg/injection, schedule: Q01DX001 (ip), vehicle: saline”, the survivor count is on record as 2 of 4.

Turning to `O=C(c1ccc(Cl)cc1Cl)C(Cl)Cl`, the survivor count (dose: 240.0 mg/kg/injection, schedule: Q01DX015 (ip), vehicle: saline) is listed as 0 of 6.

As for `COc1cc(NC(=O)Nc2ccccc2Cl)c(OC)cc1Cl`, the survivor count reads like this: (dose: 200.0 mg/kg/injection, schedule: Q04DX002 (ip), vehicle: saline with Tween-80) 3 of 3; (dose: 400.0 mg/kg/injection, schedule: Q04DX002 (ip), vehicle: saline with Tween-80) 3 of 3.

Regarding `CCCCCCCCCCNC(=O)C[n+]1cccc(C(=O)N(CC)CC)c1`, the survivor count under setting [1] is 1 of 6, the survivor count under setting [2] is listed as 0 of 6 and the survivor count under setting [3] was 0 of 6.

In the case of `N=c1ccn(CC(O)COc2ccccc2)cc1` (stereo unspecified), the survivor count is given as 0 of 4 under setting [4] and 0 of 4 under setting [5].

Turning to `CC(C)(C)C1COP(=S)(C(C)(C)C)OC1` (stereo unspecified), under setting [6], the survivor count is reported as 3 of 6.

Take `C=C(C)C(=O)OCC(O)C[N+](C)(C)C` (stereo unspecified): the survivor count under setting [7] is recorded as 2 of 6.

For the molecule `CC(=O)c1ccc[n+](Cc2ccc3c(c2)OCO3)c1`, under setting [8], the survivor count is listed as 0 of 6.

As to `CCN(CCCl)CCCNc1c2ccc(Cl)cc2nc2ccc(OC)nc12`, the survivor count by setting is: (dose: 3.0 mg/kg/injection, schedule: Q01DX009 (ip), vehicle: saline) 4 of 6; (dose: 10.0 mg/kg/injection, schedule: Q01DX009 (ip), vehicle: saline) 3 of 6; (dose: 20.0 mg/kg/injection, schedule: Q01DX009 (ip), vehicle: saline) 0 of 6; (dose: 30.0 mg/kg/injection, schedule: Q01DX009 (ip), vehicle: saline) 0 of 6; (dose: 40.0 mg/kg/injection, schedule: Q01DX009 (ip), vehicle: saline) 0 of 6.

Turning to `C1CCC2CCCN2CC1` (stereo unspecified), the survivor count reads like this: (dose: 100.0 mg/kg/injection, schedule: Q04DX003 (ip), vehicle: saline with Tween-80) 1 of 6; under setting [9], 0 of 6; (dose: 400.0 mg/kg/injection, schedule: Q04DX003 (ip), vehicle: saline with Tween-80) 0 of 6.

Consider `C(CC1CCNCC1)CC1CCNCC1` (tested in a mixture with another compound), for which the survivor count by setting is: under setting [4], 1 of 6; under setting [5], 0 of 6.

Take `CC(=O)N(C(C)C)C(C)C`: the survivor count runs as follows: (dose: 6.25 mg/kg/injection, schedule: Q01DX001 (ip), vehicle: saline with Tween-80) 0 of 6; (dose: 12.5 mg/kg/injection, schedule: Q01DX001 (ip), vehicle: saline with Tween-80) 0 of 6; (dose: 25.0 mg/kg/injection, schedule: Q01DX001 (ip), vehicle: saline with Tween-80) 1 of 6; (dose: 50.0 mg/kg/injection, schedule: Q01DX001 (ip), vehicle: saline with Tween-80) 0 of 6; (dose: 100.0 mg/kg/injection, schedule: Q01DX001 (ip), vehicle: saline with Tween-80) 0 of 6; (dose: 200.0 mg/kg/injection, schedule: Q01DX001 (ip), vehicle: saline with Tween-80) 0 of 6. Further, where the note is “dose: 400.0 mg/kg/injection, schedule: Q01DX001 (ip), vehicle: saline with Tween-80”, the survivor count was 0 of 6.

For the molecule `CN(Cc1ccccc1O)C1CC2CCC1(C)C2(C)C` (stereo unspecified), the survivor count (dose: 200.0 mg/kg/injection, schedule: Q04DX002 (ip), vehicle: saline) is on record as 0 of 3.

Turning to `CN(C)CCCn1c2ccccc2c2cnccc21`, the survivor count is reported as 0 of 6 under setting [10], 0 of 6 under setting [2] and 0 of 6 under setting [3].

Consider `O=c1cc(S(=O)(=O)c2ccccc2)[nH]c(=O)[nH]1`, for which the survivor count under setting [6] was 1 of 6.

For the molecule `O=NN(CCO)C(=O)Nc1ccc(NC(=O)N(CCO)N=O)cc1`, the survivor count reads like this: (dose: 93.0 mg/kg/injection, schedule: Q01DX001 (ip), vehicle: carboxymethylcellulose (CMC)) 2 of 6; (dose: 187.0 mg/kg/injection, schedule: Q01DX001 (ip), vehicle: carboxymethylcellulose (CMC)) 1 of 6; (dose: 375.0 mg/kg/injection, schedule: Q01DX001 (ip), vehicle: carboxymethylcellulose (CMC)) 1 of 6; (dose: 500.0 mg/kg/injection, schedule: Q01DX001 (ip), vehicle: carboxymethylcellulose (CMC)) 0 of 6; (dose: 750.0 mg/kg/injection, schedule: Q01DX001 (ip), vehicle: carboxymethylcellulose (CMC)) 0 of 6; (dose: 1000.0 mg/kg/injection, schedule: Q01DX001 (ip), vehicle: carboxymethylcellulose (CMC)) 1 of 6. For the same molecule, the survivor count (dose: 1500.0 mg/kg/injection, schedule: Q01DX001 (ip), vehicle: carboxymethylcellulose (CMC)) was 0 of 6.

Take `CCN(CC)C(=S)[S][Sn]([Cl])([c]1ccccc1)[c]1ccccc1`: the survivor count reads like this: (dose: 100.0 mg/kg/injection, schedule: Q01DX001 (ip), vehicle: other) 2 of 6; (dose: 200.0 mg/kg/injection, schedule: Q01DX001 (ip), vehicle: other) 0 of 6; (dose: 400.0 mg/kg/injection, schedule: Q01DX001 (ip), vehicle: other) 0 of 6.

Consider `ClCC1(CCl)OCCO1`, for which the survivor count under setting [8] is 0 of 6.

`CCc1ccccc1NC(=O)SCc1ccccc1`: the survivor count under setting [11] is on record as 6 of 6.

As to `CCCCCCCCCCCCCCCCCC(=O)N/N=C/c1ccc(Cl)cc1`, under setting [11], the survivor count is 6 of 6.

Take `O=C(CCCl)c1ccccc1`: the survivor count (dose: 400.0 mg/kg/injection, schedule: Q04DX002 (ip), vehicle: Klucel (hydroxypropylcellulose) (HPC)) is listed as 0 of 3.

For the molecule `COc1cccc(/C(C)=N\Nc2ccc([N+](=O)[O-])cc2[N+](=O)[O-])c1OC`, the survivor count reads like this: under setting [10], 6 of 6; under setting [9], 6 of 6.

For `CN(C)CC(C)(C)CN1c2ccccc2Sc2ccccc21`, the survivor count under setting [1] was 3 of 4; the survivor count under setting [10] is 0 of 6; the survivor count under setting [2] is 2 of 4; the survivor count (dose: 400.0 mg/kg/injection, schedule: Q01DX009 (ip), vehicle: saline) is listed as 0 of 6; the survivor count under setting [3] is 0 of 4.

`CC1=CC23C(COC(=O)C24CO4)C(C(=O)O)=CC3C1C` (stereo unspecified): the survivor count by setting is: (dose: 20.0 mg/kg/injection, schedule: Q01DX001 (ip), vehicle: saline) 2 of 6; (dose: 40.0 mg/kg/injection, schedule: Q01DX001 (ip), vehicle: saline) 0 of 6; (dose: 75.0 mg/kg/injection, schedule: Q01DX001 (ip), vehicle: saline) 0 of 6; (dose: 150.0 mg/kg/injection, schedule: Q01DX001 (ip), vehicle: saline) 0 of 6; under setting [7], 0 of 6.

On to `O=C/C(Br)=C(/Br)C(=O)O`, for which the survivor count was 2 of 3 (dose: 50.0 mg/kg/injection, schedule: Q04DX002 (ip), vehicle: saline + alcohol); 0 of 3 and 1 of 3 (dose: 100.0 mg/kg/injection, schedule: Q04DX002 (ip), vehicle: saline + alcohol); 0 of 3 (dose: 200.0 mg/kg/injection, schedule: Q04DX002 (ip), vehicle: saline + alcohol); 0 of 3 (dose: 400.0 mg/kg/injection, schedule: Q04DX002 (ip), vehicle: saline + alcohol).

The record behind these values is PubChem BioAssay AID248 (DTP/NCI, 2004).
